The results in this text go back to publication PMC10653861, “Three small partner proteins facilitate the type VII-dependent secretion of an antibacterial nuclease” (mBio, 2023).

Sequences of proteins named here, by UniProt entry; tags and fusion partners are left off. Residues count along the entry.
UniProt Q2G179, residues 1-477: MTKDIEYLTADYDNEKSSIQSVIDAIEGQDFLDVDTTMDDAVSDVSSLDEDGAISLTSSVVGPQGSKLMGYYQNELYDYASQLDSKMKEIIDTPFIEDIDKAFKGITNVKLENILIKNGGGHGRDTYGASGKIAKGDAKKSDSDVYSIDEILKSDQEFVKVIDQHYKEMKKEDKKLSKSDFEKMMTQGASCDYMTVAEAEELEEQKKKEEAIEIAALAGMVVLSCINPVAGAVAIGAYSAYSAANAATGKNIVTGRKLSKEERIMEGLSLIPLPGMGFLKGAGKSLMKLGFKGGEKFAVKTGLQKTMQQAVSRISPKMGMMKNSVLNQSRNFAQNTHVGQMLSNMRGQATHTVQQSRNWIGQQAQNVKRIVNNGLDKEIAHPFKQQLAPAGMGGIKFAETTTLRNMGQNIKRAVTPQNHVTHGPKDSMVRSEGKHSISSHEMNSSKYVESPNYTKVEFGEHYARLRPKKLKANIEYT

No constants are given. Whether binding was seen depends on the method and setting. Binding seen in cells or lysates may run through a third protein. Some results given as binding are weak or reduced against the parent protein; the word gives no strength.

In the assay the target is EsaD_(1-477)-his (Staphylococcus aureus) (UniProt Q2G179). The assay is described as follows: pull-down + SEC.

B1: EsxB (protein, UniProt Q2G182 1-104)
chain: MGGYKGIKADGGKVDQAKQLAAKTAKDIEACQKQTQQLAEYIEGSDWEGQFANKVKDVLLIMAKFQEELVQPMADHQKAIDNLSQNLAKYDTLSIKQGLDRVNP
Take B1: the binding entry is reported as “binds”.

B2: EsaE (protein, UniProt Q2G181 1-224)
chain: MKDVKRIDYFSYEELTILGGSKLPLVNFELFDPSNFEEAKAALIEKELVTENDKLTDAGFKVATLVREYISAIVNIRINDMYFAPFSYEKDEYILLSRFKNNGFQIRIINKDIAWWSIVQSYPLLMRQEKSNDWDFKQIDDETLENLNNESIDTIGRVLEIEIYNHQGDPQQSLYNIYEQNDLLFIRYPLKDKVLNVHIGVINTFIRELFGFDTDENHINKAEE
Turning to B2, the binding entry is reported as “binds”.
